# Assay results published in patent publication US10739330B2, “Carbopyronone compounds useful as diagnostic adjuvants” (LIFE TECHNOLOGIES CORPORATION, priority 2014, dated 2020).
# Some results were stated once for a whole list of compounds, not compound by compound.
# Tested on: PBMCs
# Experiment: Cell tracing by dye dilution in stained, stimulated PBMCs, flow cytometry
# Format: cell-based, human
# Conditions: PBMCs stimulated (anti hCD3 + hIL2), proliferation for 3 to 5 days, live cells gated with SYTOX Green
row,Compound,generational peaks determined by flow cytometry
1,CN1CCCc2cc3c(cc21)C(C)(C)c1cc2c(cc1=C3c1ccc(Cl)cc1C(=O)[O-])CCC[N+]=2CCCCCC(=O)ON1C(=O)CCC1=O [Compound 12],6-8 generations
2,"CN1CCCc2cc3c(cc21)C(C)(C)c1cc2c(cc1=C3c1c(Cl)ccc(Cl)c1C(=O)[O-])CCC[N+]=2CCCCCC(=O)ON1C(=O)CCC1=O [Compound 3, 3,6-dichloro-2-(1-(6-((2,5-dioxopyrrolidin-1-yl)oxy)-6-oxohexyl)-11-metheyliumyl-13,13-dimethyl-1,2,3,4,8,9,10,13-octahydro-1114-benzo[1,2-g:5,4-g′]diquinolin-6-yl)benzoate]",6-8 generations
